Laboratory results taken from the supplement of paper PMC3334620.
The full ranking holds about 33,000 sequences; the median of “E-score (-0.5 to 0.5)” is about -8e-05, and the highest 2% start at about 0.23. The list shows a part of the results.

biological target: T1, Nrg2 (UniProt P38082); assay: PBM E-score (8-mer binding enrichment) (E-score (-0.5 to 0.5)); higher = stronger / more preferred TF binding; conditions: protein concentration: 100 nM; construct: GST-full length
T1 sequence: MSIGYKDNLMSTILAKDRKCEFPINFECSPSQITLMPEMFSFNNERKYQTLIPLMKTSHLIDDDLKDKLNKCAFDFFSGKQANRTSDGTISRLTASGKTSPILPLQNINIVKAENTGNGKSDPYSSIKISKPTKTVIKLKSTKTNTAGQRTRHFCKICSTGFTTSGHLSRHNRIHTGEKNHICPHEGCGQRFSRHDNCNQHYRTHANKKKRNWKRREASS
Experimental: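 Universal 'all 10-mer' protein binding microarrays (Agilent AMADID 015681) probed with GST-tagged S. cerevisiae TFs (full-length or DBD) made by in vitro transcription/translation (PURExpress), about 100-200 nM. Bound TF was detected with fluorescent anti-GST. Each ungapped 8-mer (which stands for itself and its reverse complement) is scored by the PBM enrichment score (E-score), a modified Wilcoxon-Mann-Whitney statistic from -0.5 to +0.5, computed with the Universal PBM Analysis Suite. Scale: above 0.35 generally sequence-specific binding.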

Sequence	PBM E-score
CGGGCAAG	-0.0274
TACTTCAA	0.141
CTACTGAA	0.029
CCTACCTC	-0.0933
CCCATAGC	-0.197
ATGACCCA	0.117
CTATATTA	0.229
AGGGGACA	0.115
ATTGTAGG	0.164
CCCTGGAG	0.05
CCAAATTC	-0.0464
ATACGTAC	0.00735
AAGAAGTG	0.0261
ATTACAGA	0.0258
CGTTCATC	0.0838
CATGTCTC	0.096
CAAGGTAC	-0.172
CGTCTGAG	-0.0469
CGATAAGA	0.011
ATAATTGC	-0.0381
CAACGTAA	-0.00815
AGAGTTGG	-0.0532
GGTGGCAA	-0.0648
CCCTGAGC	0.236
AGCTTATA	-0.16

Sequence	PBM E-score
ACTTCACC	0.0737
ACCATCAG	-0.0223
CATTGGAA	-0.12
AATCTCCA	-0.12
CAAAGTAG	0.131
CGGGGGAC	-0.242
ACTATAGG	-0.141
ACTCGACT	-0.0411
GACTTCTA	-0.172
AGGCAGAC	-0.301
AGTGAAAT	-0.0857
CCTAAGTC	-0.1
GAGCCCAC	0.0222
CCTGAACA	0.0917
ACGGTGGA	-0.28
CCTCTAAG	-0.284
CTGGCCTC	0.0475
GGGCGTAA	-0.104
AACTTCAG	-0.0604
AGGAGTTC	-0.145
CGCAAACC	-0.0317
GTGATTGA	0.137
AAGTGTAC	-0.0336
GGTTGAAA	-0.012
CGCGAGAC	0.0211

Sequence	PBM E-score
CCCATGTA	-0.0172
AGGCATGC	-0.0808
AAACCCGA	0.129
ACCTGCTG	0.087
AAGGAAGA	-0.176
GGCCTCTA	-0.123
TCCATGGA	0.0892
GAGATAGA	-0.0355
ATCAAGTG	0.0907
AAATGCAC	0.0576
TATGCCCA	-0.0182
TAGTGTAA	0.0333
CCATATTA	0.168
CGCGCAAA	0.179
AAGGGCCA	-0.0108
TCCACTAA	0.0895
CTGGGTAA	-0.097
CGCCCGAG	0.117
ACTGCGTA	-0.188
ATAACATA	0.123
ACTCCTAA	-0.0667
AATGGCCA	-0.0344
ACCCCGAT	0.00354
AGCTTTCA	-0.0208
AAGTGCTA	-0.228

Sequence	PBM E-score
GGTTGGAC	-0.311
CGACGGTC	-0.00827
CAAACAGC	0.00877
AGCGTCGA	0.244
CACCTTGC	-0.00716
AAGGGAGA	-0.19
CAAACAAA	0.115
TGGCTACA	-0.0811
CTCATCAC	-0.0539
GATCATGA	0.0344
GCTGCATA	0.0217
TCCGGTCA	-0.205
AATGTGCT	0.0416
AGGGCCTA	0.0285
CTGGCATC	-0.131
ACGCTTTC	-0.0464
AAGGTATC	-0.00466
CTGGCGTA	-0.254
CTATGGTC	-0.123
AATCCGCA	0.0889
ATACACGC	-0.0419
ATCGGGTG	0.18
CTGCCCCA	0.177
GAAACTAA	0.0535
GCTATGAA	0.0927

Sequence	PBM E-score
GTCCAGTA	-0.0597
ATTGTACG	-0.133
AACACAAT	0.047
CACTACTG	0.077
GAAGGCCA	-0.231
AATAACAA	0.11
CCAAGCCA	0.023
TCGTACAA	0.0884
AAGAAAAG	-0.0237
GGGGCGTA	0.0216
CACTACCG	-0.163
CCGGCTGA	0.00157
ACTTTGTC	0.18
CCAGCTCA	-0.0387
ATCTTATA	0.141
ATTGACCG	0.0282
CCCAGATA	0.0196
ACAGCCGC	-0.0625
CAACGCGG	-0.00072
ACCATTCA	0.026
GGTGCGAA	-0.0456
TCGACACA	-0.0859
ATAGAGTA	0.00415
AAGATAGT	0.114
GGTTCAAC	0.0418

Sequence	PBM E-score
GAACACGA	0.0925
ACAAGCCG	-0.0546
AATGGTGG	-0.11
ACTGTCGG	-0.173
AATGAAAA	0.22
ATCACGTC	0.102
AGACTGTA	-0.0422
AGGTTATC	-0.201
CCGTCCAC	0.0937
TCCTGAAA	-0.0476
GTGGCGCA	-0.0518
CTACGATA	0.105
CCTATTCC	-0.0058
GCTCTAAA	-0.134
ATAAAAGA	-0.0556
GCGTCGGA	-0.0704
AGATCGGG	-0.15
AATGATTG	0.072
AGGTTCGA	0.125
ACAAAGCC	-0.0268
TAAACACA	-0.00404
ATGTCAAC	0.00895
AGGATCCG	0.0892
AGTCGGAA	-0.0122
TCCAGCAA	-0.151

Sequence	PBM E-score
GGGTGACA	-0.098
AGCAGAAT	0.174
CGGTTTAG	-0.052
GCTATGGA	-0.0664
AGGGAACT	0.109
GACGGACC	0.183
ATGAATAA	0.01
CGCGCATC	-0.0673
ACGCAGAT	0.041
CTCCTTCC	-0.292
ATCTGGGA	-0.204
CAAGGGCG	-0.0774
CAAGATTC	0.0777
CTGCTTGA	-0.0823
ACGCTTGG	0.0272
ATATATGC	0.18
AGATAGAC	0.0287
GAATCAGA	0.23
AGCTAACT	-0.0159
ACAGTATC	0.0374
AGTCAAGC	-0.111
ACGCGCCA	-0.0963
CGATGGTA	-0.0259
ATTTTTAA	0.163
CAAAGGAC	-0.169

Sequence	PBM E-score
GCAACACC	0.109
CCACCCAA	-0.0735
GACGATGC	-0.00484
AATAACGG	0.18
TCGCGAGA	0.194
AGCTACGG	-0.0601
GCCGTTAC	-0.0346
ATAAGGAG	-0.00846
CTCCTGTC	-0.17
GGTGGCAC	-0.062
CTCCATCA	-0.00292
AATGGGCA	0.0653
CAACTATC	0.0616
GCCACAGA	0.0462
CGAAACCG	0.0324
AAAAATGA	0.0139
CAACAAGG	0.186
CTGTGCAC	-0.084
AGCAACGA	0.0639
ACCCTGAA	0.319
GTTCGCTA	0.00588
ATTCATGC	0.203
GAGCAGGA	0.0341
GGCAAGAA	0.0574
GGGGCACA	-0.0349

Sequence	PBM E-score
GATACGCA	0.0695
GTTCTTTA	0.157
ACACAGTG	0.0141
TAAGAACA	0.26
GATCAACC	0.0908
ATTGAGGA	-0.0335
AAGGGTGG	-0.127
AGCCACCA	-0.0493
ATATATAG	0.204
TCTAATAA	0.0659
ACGTATGC	-0.138
CTGGGATA	-0.0685
AATGATGA	0.203
TCGTTTAA	0.0943
AGAATTTA	0.14
TCGCGACA	0.184
AAGCATGA	-0.0248
CTTACCGA	-0.0475
CCAGGGGA	-0.0803
GGCGATAC	-0.0646
TCGCAAAA	0.107
TCGCTCAA	0.146
ATATCATC	0.0451
CTAAACCA	-0.179
AATGTGAA	0.0193

Sequence	PBM E-score
ACGGATTA	-0.057
TCGTACCA	-0.00666
ACTGCGCT	-0.0217
CCAGTCTC	-0.186
GCCAAGCC	-0.0234
CCACCACG	0.00854
AACCTCAC	-0.0614
ACTCTGGA	0.0835
CTGAATTC	0.0162
CCTAGAAG	-0.123
ATGTTCCA	0.058
AGGCTTCA	-0.242
ACTGGAGG	0.15
AGATAGTG	0.174
GCCGCGCC	-0.0901
GCTACCAA	-0.226
AAAGCCTG	-0.0689
GCGTTGCA	0.0628
TAGGCCTA	-0.0268
GCCTCGAA	0.067
ATAGGGAC	0.139
CAGACAAC	0.178
ATGTAACC	-0.127
CCTACTGA	0.0413
CTCTTTCC	-0.193

Sequence	PBM E-score
ACACGGAG	0.00325
ACTCGGTG	-0.0271
AAACTTGG	-0.0266
ATAGCCTC	-0.121
TGTCAACA	-0.0446
GGGTTTCA	0.126
GCCGGATA	0.0712
CGCGCTAC	0.117
GGTCCCGA	-0.0971
AGCGCCTA	0.0167
CAGCTTTA	0.0598
CGGGTGTC	0.0306
ACTAGCCA	-0.0762
AAGACTCC	-0.317
AACGTCCC	-0.0185
TAAGCCCA	0.0533
AAAGGAGC	-0.159
CACGCTAC	-0.0912
GAAGTACA	0.0185
CGATCGCC	0.00189
CCAGCTAC	-0.157
GAACCTCA	-0.0774
ACTGGTGG	-0.101
GGGTCGGA	-0.107
CTATTACA	0.088

Sequence	PBM E-score
AAGGGTCC	0.439
CGAGTGTC	0.118
GTGGACAA	0.227
ATCGCGCC	0.201
GGAGTAAA	0.215
AACAGCTT	-0.0355
GGTTAGGA	-0.191
CGGAGCGA	0.129
AACCATAT	0.0769
CAAGTGGC	0.0772
TCTCAAAA	0.083
GCCAAGAA	-0.0233
CGCGCTTC	0.0274
CGGCTCCC	-0.12
ATTCGGGG	0.243
CACCTGAC	0.00731
ATAAGCTG	0.00477
TAGACATA	0.0718
AGACTCAT	-0.106
ACTCAGAG	-0.0817
ATTCGGAA	0.102
ACGAACCT	0.0576
CGCACAAA	0.257
ATCCAGCG	0.0764
AGGGTACT	0.255

Reformatted comma-delimited: part of the list above
Sequence,PBM E-score
CCTATTCC,-0.0058
GCTCTAAA,-0.134
ATAAAAGA,-0.0556
GCGTCGGA,-0.0704
AGATCGGG,-0.15
AATGATTG,0.072

More results:

Sequence	PBM E-score
CTAGTATA	-0.196
GCACCGTA	-0.0818
AGTTCCGG	-0.0325
AACTACAA	0.195
GCCTTACC	-0.166
TGAGTCCA	0.116
GAAGCCTC	-0.146
AATGATGT	0.0851
GGTGCGGA	-1e-05
AGTGCACG	0.0226
CGCCGCAA	0.0999
CGATTGCC	-0.0713
CGCTCCTA	-0.0527
ACTTGACT	0.0321
ATCGCGTC	0.133
AGGTTTTA	-0.156
CAATATGC	0.0165
CCTAGAAA	-0.0341
AGCAAAAG	-0.0507
AAGTGTAT	-0.0378
CTCGATAC	0.245
CAGCGGCG	-0.00439
CCTATCAA	0.071
CGCAGGAA	-0.049
TACTTAAA	-0.105

Sequence	PBM E-score
TGTAAAAA	-0.0125
AACGCTGA	-0.116
CAGGATGA	-0.0359
ATGCGTTC	0.208
AACTAGCT	0.0365
GAACGGCC	-0.0287
ATCGGAGA	-0.1
AGTGCTAG	-0.0309
AAAGACGC	-0.084
ACGCTTGC	-0.0292
ACCCCGAA	0.221
AAGTCCTA	-0.264
AAACAGGG	0.207
ACTACCCC	-0.0169
ACGATACA	-0.0148
AATCTGTC	0.088
GTGAACAA	0.204
TATCTCCA	0.131
CTATACAC	-0.0773

Part of the list above, as a markdown table.

| Sequence | PBM E-score |
| --- | --- |
| CCCAGATA | 0.0196 |
| ACAGCCGC | -0.0625 |
| CAACGCGG | -0.00072 |
| ACCATTCA | 0.026 |

Given in markdown: part of the list above

| Sequence | PBM E-score |
| --- | --- |
| AGTGCACG | 0.0226 |
| CGCCGCAA | 0.0999 |
